Laboratory results: patent US20030096355A1 (published 2003)
Results are given in words; binding and its absence hold for the method and conditions named. Some binding calls cover weakened binding; strength is not graded here.

Target: T1, active murine TRAIL (murine, UniProt P50592 99-291)
T1 construct: The result is told only for 'active murine TRAIL which was bioactive in cell culture assays'; The construct (flag-tagged 99-291 or Fc fusion) is not tied to the KD; also called murine flag TRAIL; murine Fc TRAIL
T1 sequence (looked up): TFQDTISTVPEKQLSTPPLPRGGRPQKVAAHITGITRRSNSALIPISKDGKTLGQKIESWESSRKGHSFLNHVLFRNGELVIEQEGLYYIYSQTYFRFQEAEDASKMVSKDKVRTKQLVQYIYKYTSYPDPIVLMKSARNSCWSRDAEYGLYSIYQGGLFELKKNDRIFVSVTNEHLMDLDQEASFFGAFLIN
Test: SPR, Biacore 2000, 25° C

B1: recombinant ymkz5-receptor (receptor)
chain: MPESYSFNCPDGEYQSNDVCCKTCPSGTFVKAPCKIPHTQGQCEKCHPGTFTGKDNGLHDCELCSTCDKDQNMVADCSATSDRKCECQIGLYYYDPKFPESCRPCTKCPQGIPVLQECNSTANTVC
binding: binds
